No constants are given. Whether binding was seen depends on the method and setting. In cells and extracts the contact can be indirect. A result given as binding can be weak or reduced; the word gives no strength. Tags and fused reporters may be left off the sequences shown.
Molecular target: dynein intermediate chain (human (endogenous in HEK293T))
Assay: co-IP; anti-DIC immunoprecipitation from HEK293T extracts (untransfected or expressing FLAG-CDK5RAP2 fragments); lysis buffer 25 mM Tris-HCl pH 7.4, 0.5% NP40, 100 mM NaCl; at least 2 h, 4°C; normal mouse IgG as control

B1: FLAG-tagged CDK5RAP2 construct spanning residues 706–1893 (domain or fragment, UniProt Q96SN8 706-1893)
chain: SKEDEDTIKIGEDDEINFLSDQHLQQSNEIMKDLSKGGCKNGYLRHTESKISDCDGAHAPGCLEEGAFINLLAPLFNEKATLLLESRPDLLKVVRELLLGQLFLTEQEVSGEHLDGKTEKTPKQKGELVHFVQTNSFSKPHDELKLSCEAQLVKAGEVPKVGLKDASVQTVATEGDLLRFKHEATREAWEEKPINTALSAEHRPENLHGVPGWQAALLSLPGITNREAKKSRLPILIKPSRSLGNMYRLPATQEVVTQLQSQILELQGELKEFKTCNKQLHQKLILAEAVMEGRPTPDKTLLNAQPPVGAAYQDSPGEQKGIKTTSSVWRDKEMDSDQQRSYEIDSEICPPDDLASLPSCKENPEDVLSPTSVATYLSSKSQPSAKVSVMGTDQSESINTSNETEYLKQKIHDLETELEGYQNFIFQLQKHSQCSEAIITVLCGTEGAQDGLSKPKNGSDGEEMTFSSLHQVRYVKHVKILGPLAPEMIDSRVLENLKQQLEEQEYKLQKEQNLNMQLFSEIHNLQNKFRDLSPPRYDSLVQSQARELSLQRQQIKDGHGICVISRQHMNTMIKAFEELLQASDVDYCVAEGFQEQLNQCAELLEKLEKLFLNGKSVGVEMNTQNELMERIEEDNLTYQHLLPESPEPSASHALSDYETSEKSFFSRDQKQDNETEKTSVMVNSFSQDLLMEHIQEIRTLRKRLEESIKTNEKLRKQLERQGSEFVQGSTSIFASGSELHSSLTSEIHFLRKQNQALNAMLIKGSRDKQKENDKLRESLSRKTVSLEHLQREYASVKEENERLQKEGSEKERHNQQLIQEVRCSGQELSRVQEEVKLRQQLLSQNDKLLQSLRVELKAYEKLDEEHRRLREASGEGWKGQDPFRDLHSLLMEIQALRLQLERSIETSSTLQSRLKEQLARGAEKAQEGALTLAVQAVSIPEVPLQPDKHDGDKYPMESDNSFDLFDSSQAVTPKSVSETPPLSGNDTDSLSCDSGSSATSTPCVSRLVTGHHLWASKNGRHVLGLIEDYEALLKQISQGQRLLAEMDIQTQEAPSSTSQELGTKGPHPAPLSKFVSSVSTAKLTLEEAYRRLKLLWRVSLPEDGQCPLHCEQIGEMKAEVTKLHKKLFEQEKKLQNTMKLLQLSKRQEKVIFDQLVVTHKILRKARGNLELRPGGAHPGTCSPSRPGS
- binding: binds

B2: FLAG-tagged CDK5RAP2 construct 1–706 (domain or fragment, UniProt Q96SN8 1-706)
chain: MMDLVLEEDVTVPGTLSGCSGLVPSVPDDLDGINPNAGLGNGLLPNVSEETVSPTRARNMKDFENQITELKKENFNLKLRIYFLEERMQQEFHGPTEHIYKTNIELKVEVESLKRELQEREQLLIKASKAVESLAEAGGSEIQRVKEDARKKVQQVEDLLTKRILLLEKDVTAAQAELEKAFAGTETEKALRLRLESKLSEMKKMHEGDLAMALVLDEKDRLIEELKLSLKSKEALIQCLKEEKSQMACPDENVSSGELRGLCAAPREEKERETEAAQMEHQKERNSFEERIQALEEDLREKEREIATEKKNSLKRDKAIQGLTMALKSKEKKVEELNSEIEKLSAAFAKAREALQKAQTQEFQGSEDYETALSGKEALSAALRSQNLTKSTENHRLRRSIKKITQELSDLQQERERLEKDLEEAHREKSKGDCTIRDLRNEVEKLRNEVNEREKAMENRYKSLLSESNKKLHNQEQVIKHLTESTNQKDVLLQKFNEKDLEVIQQNCYLMAAEDLELRSEGLITEKCSSQQPPGSKTIFSKEKKQSSDYEELIQVLKKEQDIYTHLVKSLQESDSINNLQAELNKIFALRKQLEQDVLSYQNLRKTLEEQISEIRRREEESFSLYSDQTSYLSICLEENNRFQVEHFSQEELKKKVSDLIQLVKELYTDNQHLKKTIFDLSCMGFQGNGFPDRLASTEQTELLAS
- binding: no binding
